“Also recorded” adds a separate entry of the source. Part of at least one peptide drawing is inferred or uncertain, most often the ends. Some entries repeat one wording, which the source may state once for all of them. No end group written: not given here.
Tests used:
[1] = test system: T lymphocytes expressing CXCR5 in PBMCs of healthy donors; assay: CXCR5 expression in T-lymphocytes after peptide stimulation (flow cytometry); type: cell-based, human; conditions: for Percentage of T-lymphocytes expressing CXCR5, 1st and 3rd quartine: 1st and 3rd quartile of 10 donors; for expression of CXCR5 with respect to CTR: T-lymphocytes, Friedman test, result in words; for Percentage of T-lymphocytes expressing CXCR5: peptides 5ug/ml, 4 days after third stimulation; for Percentage of T-lymphocytes expressing CXCR5, Median: median of 10 donors, * P = <0,001 (Friedman)
Procedure: In order to evaluate the expression of a specific marker (CXCR5) in cultured […], the cells, 4 days after the third stimulation, were washed twice and stained with anti-CXCR5, in PBS supplemented with 0.5% FCS and 0.01%NaN3 at 4°C. After twenty minutes they were washed twice and analysed on FACSCanto flow cytometer (Becton Dickinson). The data were analyzed using FlowJo software (TreeStar, CA, USA).
Table 3. The CXCR5 expression measured as % of T lymphocytes expressing CXCR5 in PBMCs of healthy donors vs total lymphocytes (median, 1st and 3rd quartile) has been reported. Friedman Repeated Measures Analysis of Variance on Ranks has been performed. Column 1: number of different donors (Pz); column 2: the percentage of control (CTR) not challenged T lymphocytes expressing CXCR5; columns 3-12: the percentage of T lymphocytes expressing CXCR5 after the stimulation with different peptides.
CXCR5, a chemokine transmembrane receptor belonging to the CXC chemokine receptor family plays an essential role in B cell activation (Legler D.F., et al., J. Exp. Med., 1998, 187, 4, 655). The CXCR5 expression was measured as % of T-lymphocytes expressing CXCR5 versus total lymphocytes (median, 1st and 3rd quartile) and Friedman Repeated Measures Analysis of Variance on Ranks was performed.

Aβ[1-42] = assay: Immunization of C57BL/6 mice with Aβ[13-28]+G-KLH, ELISA on Aβ[1-42]; type: in vivo; conditions: KLH conjugate, Freund's adjuvant, subcutaneous; plasma diluted 1:1000; listed as Aβ[13-28]+G
[2] = Immunization of C57BL/6 mice with Aβ[13-28]+G-KLH, ELISA on the antigen; type: in vivo; conditions: KLH conjugate, Freund's adjuvant, subcutaneous

| Sequence | Percentage of T-lymphocytes expressing CXCR5, 1st and 3rd quartine [1] | expression of CXCR5 with respect to CTR [1] | Percentage of T-lymphocytes expressing CXCR5 ([1]; donor Pz1) [%] | Percentage of T-lymphocytes expressing CXCR5 ([1]; donor Pz2) [%] | Percentage of T-lymphocytes expressing CXCR5 ([1]; donor Pz3) [%] | Percentage of T-lymphocytes expressing CXCR5 ([1]; donor Pz4) [%] | Percentage of T-lymphocytes expressing CXCR5 ([1]; donor Pz5) | Percentage of T-lymphocytes expressing CXCR5 ([1]; donor Pz6) | Percentage of T-lymphocytes expressing CXCR5 ([1]; donor Pz7) | Percentage of T-lymphocytes expressing CXCR5 ([1]; donor Pz8) [%] | Percentage of T-lymphocytes expressing CXCR5 ([1]; donor Pz9) [%] | Percentage of T-lymphocytes expressing CXCR5 ([1]; donor Pz10) [%] | Percentage of T-lymphocytes expressing CXCR5, Median [1] | cross-reaction of produced antibodies with Aβ[1-42] (Aβ[1-42]) | specific immunogenic responses [2] | IgM response ([2]; data not shown) | IgG response ([2]; plasma diluted 1:1000, listed as Aβ[13-28]+G) |
| --- | --- | --- | --- | --- | --- | --- | --- | --- | --- | --- | --- | --- | --- | --- | --- | --- | --- |
| DGEGRGDGGGEGHGQG [Seq.4] | 9.5-36.0% | statistically different expression of CXCR5 with respect to CTR | 19.08 | 23.01 | 38.00 | 1.03 | 10,2% | 7,1% | 14,1% | 39.08 | 39.09 | 44.01 | 18.5* % | – | – | – | – |
| GGNGGGIGGGMGGGVGIG [Seq.10] | 11.3-34.6% | statistically different expression of CXCR5 with respect to CTR | 13.05 | 15.07 | 20.04 | 1.02 | 9,2% | 7,4% | 14,1% | 34.02 | 33.07 | 33.04 | 14.3* % | – | – | – | – |
| HGQGLGFGAGDGGGNG [Seq.7] | 13.4-29.5% | statistically different expression of CXCR5 with respect to CTR | – | – | 55.09 | 0 | 11,6% | 7,6% | 15,6% | 52.02 | 39.09 | 38.00 | 22.9* % | able to cross-react with Aβ[1-42] synthetic peptide; also recorded: good increase in IgG recognizing the antigen and Aβ[1-42] | able to induce specific immunogenic responses | more modest IgM response | robust IgG response; also recorded: good increase in IgG recognizing the antigen |

From patent EP2106802A1, “Modified peptides as synthetic vaccines in amyloid-associated disease” (SIGMA-TAU Industrie Farmaceutiche Riunite S.p.A., priority 2008, dated 2009)
